Data reported in US20230165965A1, “NEW COUMARIN-POLYMER CONJUGATES AND USES THEREOF” (Onyel Biotech S.r.l., priority 2020, published 2023).
Some entries share one result that the patent states for a list of compounds.

System: Primary muscular fibroblasts (FBs)
Conditions: two days after 3D culture, cell-laden constructs

For “7-(carboxymethoxy)-4-methylcoumarin-gelatin [CMMC-Gel]”, the cell viability was 90-99%.
